Results are given in words; binding and its absence hold for the method and conditions named. In cells and extracts the contact can be indirect. Binding calls can cover weak binding; strength is not graded here. Where a sequence is shown, tags or fusion partners need not be part of it.
Target: His6-tagged human DKC1 Δ22C (Sf9) (human) (UniProt O60832)
Assay: co-purification of co-expressed subunits (tandem affinity); Sf9 cells co-expressing His6-DKC1 (wild type or mutant), GAR1, FLAG-NHP2, NOP10 (wild type or R34W); Ni-NTA, Heparin Sepharose (1 M NaCl eluate), anti-FLAG agarose, mock or MNase treated, washed with 0.6 M NaCl, FLAG peptide elution; silver or Coomassie stain

Amino acid sequences for entries named in this document (tags omitted). A change or cut given only in a name is not applied to a line headed by its entry.
UniProt O60832: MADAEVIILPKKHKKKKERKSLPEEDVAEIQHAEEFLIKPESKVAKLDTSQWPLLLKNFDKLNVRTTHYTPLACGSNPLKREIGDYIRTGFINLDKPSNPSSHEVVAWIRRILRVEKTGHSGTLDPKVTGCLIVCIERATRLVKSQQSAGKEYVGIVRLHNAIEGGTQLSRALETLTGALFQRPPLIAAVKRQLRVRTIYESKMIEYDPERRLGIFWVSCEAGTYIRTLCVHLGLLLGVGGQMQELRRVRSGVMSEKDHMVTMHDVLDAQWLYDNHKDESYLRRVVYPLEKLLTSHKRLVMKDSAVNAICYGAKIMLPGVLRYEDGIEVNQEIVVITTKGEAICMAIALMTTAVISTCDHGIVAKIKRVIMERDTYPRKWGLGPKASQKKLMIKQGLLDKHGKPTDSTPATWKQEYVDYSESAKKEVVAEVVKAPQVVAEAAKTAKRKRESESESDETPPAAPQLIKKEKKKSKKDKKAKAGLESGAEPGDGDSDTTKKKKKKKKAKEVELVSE

binding: binds
B1: FLAG-tagged NHP2 (Sf9) (protein, UniProt Q9NX24 1-153)
chain: MTKIKADPDGPEAQAEACSGERTYQELLVNQNPIAQPLASRRLTRKLYKCIKKAVKQKQIRRGVKEVQKFVNKGEKGIMVLAGDTLPIEVYCHLPVMCEDRNLPYVYIPSKTDLGAAAGSKRPTCVIMVKPHEEYQEAYDECLEEVQSLPLPL
